Results are given as percent effect. The controls that fix the scale are not given in the record; negative values are as filed. Compounds were drawn at random from those tested, without regard to their results.

Mtb growth Cornell: 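Whole-cell assay for inhibitors of Mycobacterium tuberculosis growth, labelled Cornell in the record; the read-out is not stated. The concentration is filed as 10 mM, unlikely as a test dose, so the dose is not known. The record gives no direction; compounds strong in two other growth screens of this library score well above the rest, so higher reads as stronger inhibition. About 53,000 compounds were tested under these conditions; 1.7% (about 900) showed 50% or more at least once.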
Mtb heat-shock: 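Assay on Mycobacterium tuberculosis, filed only as a heat shock assay from Cornell; the read-out is not stated. The concentration is filed as 10 mM, unlikely as a test dose, so the dose is not known. Direction is inferred from retests: higher values go with stronger inhibition. Of about 69,000 compounds tested this way, about 930 (1.4%) reached 50% or more in at least one test.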

- Cc1ccc2nc(N3CCN(CC(=O)NC(C)C)CC3)cc(C)c2c1 | Mtb growth Cornell: 16.69%; Mtb heat-shock: -12%
- O=C(O)C(F)(F)F.[H][C@@]12CCN(c3nncs3)[C@@]1([H])CCN2C(=O)CC1CCCC1 | Mtb growth Cornell: -12.69%; Mtb heat-shock: -36.8%
- CC(C)C(=O)N1CCC(NCc2c(C(C)C)nn(C)c2N(C)C)CC1 | Mtb growth Cornell: 31.79%; Mtb heat-shock: -10.72%
- O=C(O)CC(O)(CC(=O)O)C(=O)O.OCCN(Cc1ccncc1)CC1(c2ccc(Cl)cc2)CCCC1 | Mtb growth Cornell: 12.19%; Mtb heat-shock: -5.382%
- CN(CCCc1nccn1C)C(=O)C1CCN(C(=O)C2CCCC2)CC1 | Mtb growth Cornell: 11.58%; Mtb heat-shock: 2.822%
- CCSc1ncc(CN2CCC(O)(CN3CCOCC3)C(C)(C)C2)cn1 (stereo unspecified) | Mtb growth Cornell: 3.975%; Mtb heat-shock: 6.315%
- COCCCN(C)c1nc(-c2ccncc2)nc(C)c1C | Mtb growth Cornell: 79.79%; Mtb heat-shock: 49.79%
- CCOCc1nc(N2CCCC2)sc1C(=O)NCCC(=O)OCC | Mtb heat-shock: 3.916%
- CC1CC(=O)c2cc(C(=O)N3CCc4ccccc43)c(=O)[nH]c2C1 (stereo unspecified) | Mtb growth Cornell: 16.87%; Mtb heat-shock: -4.761%
- CN(C)C(=O)N1CCC2(CC(=O)N(c3ccc4c(c3)OCO4)C2)C1 (stereo unspecified) | Mtb growth Cornell: -28.84%; Mtb heat-shock: -6.416%
- CCc1cc(NCCNC(=O)c2cccnc2)n2nc(C)c(C)c2n1 | Mtb growth Cornell: -44.13%; Mtb heat-shock: -20.84%
- CC(=O)N1CCC2(CC1)CN(CC(C)C)CC21CCNC1=O.O=C(O)C(F)(F)F (stereo unspecified) | Mtb heat-shock: -4.19%
- CCc1cc(NCCN2CCNC2=O)n2nccc2n1 | Mtb growth Cornell: -6.964%; Mtb heat-shock: -33.52%
- CN(C)C(C(=O)N1CC(c2ccccn2)C1)c1ccc2c(c1)OCO2 (stereo unspecified) | Mtb growth Cornell: 13.29%; Mtb heat-shock: 12.98%
- O=S(=O)(NCc1ccccc1)Nc1cccc(Cn2cncn2)c1 | Mtb growth Cornell: 6.539%; Mtb heat-shock: -11.28%
- N#Cc1cccc(OCCN2CCCC2C(=O)NC2CC2)c1 (stereo unspecified) | Mtb heat-shock: 0.9766%
- COc1cc2c(cc1OC)CN(Cc1ncccc1C(=O)O)CC2 | Mtb growth Cornell: 3.593%; Mtb heat-shock: -7.216%
- CCOc1ncccc1CNC(=O)NCC(O)c1ccccc1OC (stereo unspecified) | Mtb heat-shock: -9.474%
- O=C(NCCOc1ccccc1)NCC(O)c1cccs1 (stereo unspecified) | Mtb growth Cornell: 1.907%; Mtb heat-shock: 7.229%
- Cc1n[nH]cc1CNC1(c2ccc(F)cc2)CCCC1 | Mtb heat-shock: -1.363%
- Cc1cc(C(=O)Nc2n[nH]c(C3CC3)n2)c2c(C)nn(C)c2n1 | Mtb growth Cornell: 11.85%; Mtb heat-shock: -10.2%
- Cc1nc(CN2C(=O)CCC23CCN(Cc2ccco2)CC3)cs1 | Mtb growth Cornell: 4.961%; Mtb heat-shock: 5.099%
- CCc1nc2n(n1)CCCC2NC(=O)Nc1ccc(F)cc1C#N (stereo unspecified) | Mtb heat-shock: -20.86%
- CCc1nccn1C1CCCN(C(=O)c2c(C)nsc2NC)C1 (stereo unspecified) | Mtb growth Cornell: -1.736%; Mtb heat-shock: -5.262%
- CNC(=O)C1(CCCc2ccncc2)CCCCN1.Cl (stereo unspecified) | Mtb growth Cornell: -21.39%; Mtb heat-shock: -30.68%
- Cn1cccc1C(=O)NCc1cnc2n1CCN(c1ccccn1)C2 | Mtb growth Cornell: 9.511%; Mtb heat-shock: 19.58%
- Cc1cc(CN(C)C(=O)c2cc(COc3ccccc3)[nH]n2)n[nH]1 | Mtb heat-shock: -168.4%
- CC(NS(=O)(=O)CCc1ccccn1)c1ccccc1Br (stereo unspecified) | Mtb growth Cornell: -28.11%; Mtb heat-shock: -14.12%
- COc1cc2ccn(CCS(C)(=O)=O)c(=O)c2cc1F | Mtb heat-shock: -10.52%
- Cc1nc(C)n(CC2CCCN2CC(=O)Nc2cc(C(C)C)no2)n1 (stereo unspecified) | Mtb growth Cornell: 21.49%; Mtb heat-shock: -40.94%
- CC(C)c1noc(CNc2cccc(-c3nnnn3C)c2)n1 | Mtb growth Cornell: 26.9%; Mtb heat-shock: -12.43%
- CC(C)NC(=O)N1CCC2(CC(=O)N(c3ccccc3)C2)C1 (stereo unspecified) | Mtb growth Cornell: -83.35%; Mtb heat-shock: -28.48%
- COc1ccc(CC(=O)N2CCCC(n3cccn3)C2)cc1F (stereo unspecified) | Mtb growth Cornell: 7.943%; Mtb heat-shock: -19.18%
- Cc1[nH]ncc1C(=O)N1CCCC(c2cc(C(F)(F)F)[nH]n2)C1 (stereo unspecified) | Mtb growth Cornell: 7.056%; Mtb heat-shock: 27.12%
- CN1CCOC(CNC(=O)CCc2cc(F)ccc2F)C1 (stereo unspecified) | Mtb heat-shock: -21.91%
- CCn1ccnc1CN1CCN(C(C)C(=O)NCC(F)(F)F)CC1 (stereo unspecified) | Mtb growth Cornell: -5.562%; Mtb heat-shock: -22.62%
- O=C(O)C(F)(F)F.O=C(O)C(F)(F)F.c1cnc(N2CC[C@@H](N3CCOCC3)[C@@H]2Cc2ccncc2)nc1 | Mtb growth Cornell: 25.04%; Mtb heat-shock: -20.29%

For reference, 2 entries once more:

compound,Mtb growth Cornell,Mtb heat-shock
O=C(O)CC(O)(CC(=O)O)C(=O)O.OCCN(Cc1ccncc1)CC1(c2ccc(Cl)cc2)CCCC1,12.19,-5.382
CC(C)C(=O)N1CCC(NCc2c(C(C)C)nn(C)c2N(C)C)CC1,31.79,-10.72

Source: ChEMBL document CHEMBL3988442, “University of Dundee, Small-Polar-MMV Screening Library” (2021).